# Some of the results follow. These are further read-outs of the screen, such as a control signal, another cell line or another target. No call is given for them. Compounds called inactive in the main read-out are mostly missing here. Potencies come from curve fits of mixed quality, noted in brackets.
# Test: qHTS Assay for Lipid Storage Modulators in Drosophila S3 Cells;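 on cell number change: cells counted by Cell Tracker Red CMTPX staining in the red channel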
# Conditions: BODIPY lipid droplet fluorescence, 18-24 h; for cell number change: measured here: cell count max response, cells fed with added oleic acid
# How it was run: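 Drosophila S3 cells loaded with oleic acid (400 uM, as added) and compounds at several concentrations; lipid droplets imaged by 488-nm laser-scanning cytometry, 500–530 nm intensity and object ratio to cell channel. Percent activity normalized to 20 uM Triacsin C.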
# [1] = measured here: lipid fluorescence (Fed channel) AC50, cells fed with added oleic acid
# [2] = measured here: cell number channel AC50, cells fed with added oleic acid
SMILES,cell number change [%],AC50 [1],AC50 [2]
Cc1cccc(C(P(=O)(c2ccccc2)c2ccccc2)P(=O)(c2ccccc2)c2ccccc2)n1,-25.2,"29.1 µM [falling, single point]",
COc1ccc(-n2c(SCC(=O)Nc3ccc(NC(C)=O)cc3)nc3c([nH]c4ccccc43)c2=O)cc1OC,0.379,"6.51 µM [rising, single point]",
Cc1ccc(N2C(=O)C3CC3C2=O)cc1 (centres undefined),29.3,,"0.00461 µM [falling, full curve, poor fit]"
Cc1[nH]c2ccccc2c1C(=O)CN1CCC(C)CC1,35.9,,"18.4 µM [rising, single point]"
CCOc1ccc(OCC)c(NC(=O)CN(C)S(=O)(=O)c2ccc3nc(C)sc3c2)c1,-0.286,"5.17 µM [rising, partial curve]",
CCNS(=O)(=O)c1ccc2c3c(cccc13)C(=O)N2,-2.23,,"0.13 µM [falling, full curve, poor fit]"
Cc1noc(C)c1C(=O)N1CCc2ccccc2C1,-37,"32.6 µM [falling, partial curve, poor fit]","0.058 µM [falling, full curve]"
C=CCn1c(-c2oc3nc(-c4ccccc4)cc(-c4ccccc4)c3c2N)n[nH]c1=S,33.1,"1.16 µM [rising, full curve]","1.16 µM [rising, partial curve]"
c1ccc(CSc2nnc(-c3ccncc3)o2)cc1,-7.14,"20.6 µM [rising, single point]",
O=C(c1ccc(Cl)c(Cl)c1)N1CCC(=O)N(C(COCc2cccc(C(F)(F)F)c2)Cc2ccccc2)CC1 (centres undefined),-6.03,"6.51 µM [rising, single point]",
CCCCN1C(=O)CCC(C(=O)O)C1c1ccc(OC)cc1 (centres undefined),,"0.651 µM [falling, single point]","6.51 µM [falling, single point]"
Cc1ccc(S(=O)(=O)N2CCn3cccc3C2C)cc1 (centres undefined),8.63,"0.13 µM [falling, full curve, poor fit]",
Cc1cc(Nc2ccc(Cl)cc2)nc(N2CCOCC2)n1,31,,"0.082 µM [rising, full curve]"
COc1ccc(CNc2ccc3c(c2)CCC3)cc1Br,-21.5,,
COc1cccc(CC(=O)N2CCC(CCC(=O)Nc3cccc(OC)c3)CC2)c1,,"0.366 µM [rising, partial curve]",
COC(=O)CCP(=O)(O)Cc1ccccc1CP(=O)(O)CCC(=O)OC,-20.5,"29.1 µM [falling, single point]",
c1ccc(-c2cn3nc4c(nc3n2)CCCC4)cc1,0.0472,"6.51 µM [rising, single point]",
COc1ccc(/C=N/NC(=O)c2ccn[nH]2)cc1COc1ccc(F)cc1,-24.3,,
c1ccc2c(c1)ncn2-c1ccc(-c2ccnc3ncnn23)cc1,54.6,,"5.8 µM [rising, partial curve, poor fit]"

# 2 entries drawn at random from the list so far:
SMILES,cell number change [%],AC50 [1],AC50 [2]
COC(=O)CCP(=O)(O)Cc1ccccc1CP(=O)(O)CCC(=O)OC,-20.5,"29.1 µM [falling, single point]",
Cc1ccc(S(=O)(=O)N2CCn3cccc3C2C)cc1 (centres undefined),8.63,"0.13 µM [falling, full curve, poor fit]",

# The listing continues.

SMILES,cell number change [%],AC50 [1],AC50 [2]
COc1ccc(OC)c(NC(=O)CCn2cccc2)c1,16.5,,
Fc1ccc(CNc2nc3ccccc3n3cnnc23)cc1,-0.737,"0.092 µM [rising, full curve, poor fit]",
COc1ccc(CCNC(=O)C(=O)NCC2OCCN2S(=O)(=O)c2ccc(OC)c(OC)c2)cc1 (centres undefined),-14.7,"0.82 µM [falling, partial curve]",
COCCNC(=O)c1ccccc1NC(=O)Cc1ccccc1,6.05,,
Cc1ccccc1OCC(=O)NNC(=S)NC(=O)c1ccccc1[N+](=O)[O-],-46.1,"11.6 µM [falling, partial curve]","1.03 µM [falling, full curve]"
COc1cc2c(cc1NC(=O)CSc1nc3cc(Cl)ccc3s1)oc1ccccc12,-47,"16.4 µM [falling, partial curve]","13 µM [falling, partial curve]"
C=C(C)CSc1nnc([C@@H](NC(=O)OC(C)(C)C)C(C)CC)o1 (some centres undefined),-17.5,"0.0291 µM [rising, full curve, poor fit]",
CCC(Oc1cc(Cl)ccc1Cl)C(=O)NN1C(=O)C2C3CCC(C3=C(C)C)C2C1=O (centres undefined),-40.8,,"32.6 µM [falling, single point]"
COCCN(C(=S)Nc1ccc(Cl)cc1OC)C1CCN(C(C)=O)CC1,8.49,"10.3 µM [rising, partial curve, poor fit]",
COc1ccc(C2C3=C(CCCC3=O)Nc3nc(SCc4ccc(C(=O)O)cc4)nn32)cc1OC (centres undefined),13.1,"5.17 µM [falling, single point]",
Cc1cc(C(=O)COC(=O)CNS(=O)(=O)c2ccc3ccccc3c2)c(C)n1-c1ccccc1,11.6,"10.3 µM [rising, single point]",
COC(=O)[C@H](Cc1c[nH]c2ccccc12)NC(=O)NCc1ccc(OC)c(OC)c1,8.38,"6.51 µM [falling, single point]",
Cc1n[nH]c(=O)c2c(NC(=O)CSc3nn(-c4ccccc4)c(=S)s3)oc(C)c12,,,"2.31 µM [rising, partial curve]"
Cc1[nH]c(C)c(S(=O)(=O)Nc2ccc(F)cc2Cl)c1C(=O)N1CCCC1,,"4.11 µM [rising, single point]",
CCc1nnc(NS(=O)(=O)c2ccc(N=Cc3c(C)[nH]n(-c4ccc(C)cc4)c3=O)cc2)s1,-4.46,"18.4 µM [rising, single point]",
CCNC(=S)NNC(=O)Nc1ccccc1,-4.03,"6.51 µM [falling, single point]","0.103 µM [falling, full curve, poor fit]"
O=C(O)c1ncn(Cc2ccc(Br)cc2)c1C(=O)O,-5.19,"0.461 µM [falling, full curve, poor fit]",
O=C(N/N=C/c1ccncc1)c1cnccn1,11,"29.1 µM [rising, single point]",
CCOc1ncccc1C(=O)Nc1ncc(C)s1,,"0.116 µM [rising, single point]","0.13 µM [rising, partial curve, poor fit]"

# Source: PubChem BioAssay AID2685 (National Center for Advancing Translational Sciences (NCATS), 2010)
